The list shows a part of the results.
What follows are molecules tested on T1, CTL2-GFP (C. trachomatis L2/434/Bu, GFP-expressing). Conditions: bulk GFP, single well; 28.5 h, 10 µM; inhibitor.
T1 construct: L2/434/Bu, GFP-expressing
Set-up: species or system HeLa; Intracellular C. trachomatis growth in HeLa cells, bulk GFP fluorescence relative to DMSO
For `CN(CC(=O)O)C(=O)c1ccc(S(=O)(=O)N2CCCCC2)cc1` [CBK265715], the “% of control remaining” value was 81.8201%.
In the case of `Cc1ccc(CN(CCCn2ccnc2)Cc2ccccn2)o1` [CBK283102], the “% of control remaining” value is reported as 85.376%.
For `COc1ccc(C(=O)Nc2cncc(OC3CCNCC3)n2)cc1` [CBK036370T], the “% of control remaining” value was 126.712%.
In the case of `O=C(CC(CN1CCN(c2ccccn2)CC1)C(=O)O)NC1CCCCC1` (stereo not shown) [CBK286812], the “% of control remaining” value is reported as 100%.
For `Cc1cc(C)nc(Nc2n[nH]c(-c3cccnc3)n2)n1` [CBK267120], the “% of control remaining” value was 134.228%.
`O=C(O)c1ccc(Br)c(S(=O)(=O)NCc2ccccc2)c1` [CBK263202] was tested, and the “% of control remaining” value was 112.166%.
In the case of `CN(C)CCNC(=O)CSc1ccccc1` [CBK268426], the “% of control remaining” value is reported as 80.3604%.
With `CC(CO)(CO)NCc1ccc(-c2ccccc2)cc1` [CBK268325C] the “% of control remaining” value was 117.292%.
In the case of `COCCCNCCn1cnc2c(N)ncnc21` [CBK277059], the “% of control remaining” value is reported as 145.654%.
For `CCCCN(C=O)c1c(CC)nc2ccc(C(=O)N3CCN(C)CC3)cn12` [CBK145707], the “% of control remaining” value was 125.297%.
With `CCOc1ccc(CC(=O)NN2CCOCC2)cc1OCC` [CBK268150] the “% of control remaining” value was 108.2%.
With `O=c1[nH]nc(SCc2ccccc2Cl)c(=S)[nH]1` [CBK027795] the “% of control remaining” value was 88.9545%.
In the case of `Cc1nsc(NCc2ccccc2CN2CCCC2CO)c1C#N` (stereo not shown) [CBK304124], the “% of control remaining” value is reported as 121.285%.
For `CCc1ccc(C(=O)Nc2ccc(NC(C)=O)cc2C(F)(F)F)cc1` [CBK295202], the “% of control remaining” value was 152.899%.
With `O=C(c1ccsc1NS(=O)(=O)/C=C/c1ccccc1)N1CCOCC1` [CBK042285] the “% of control remaining” value was 124.033%.
`N#CCCn1cc(C(=O)N2CCCCC2)c(-c2ccc(F)cc2)n1` [CBK306191] was tested, and the “% of control remaining” value was 141.178%.
`Cc1cc(C(C)(C)C)cc(C)c1COC(=O)c1ccncc1` [CBK296995] was tested, and the “% of control remaining” value was 72.8308%.
`Cc1nccn1CCC(=O)Nc1ccccc1Oc1ccc(F)cc1` [CBK281473] was tested, and the “% of control remaining” value was 139.57%.
With `O=[N+]([O-])c1cccc(S(=O)(=O)NCCOc2cccc3cccnc23)c1` [CBK268489] the “% of control remaining” value was 113.913%.
With `O=S(=O)(NCCCN1CCOCC1)c1cc(C(F)(F)F)cc(C(F)(F)F)c1` [CBK005796] the “% of control remaining” value was 112.048%.
In the case of `CNC(=O)c1cc(-c2cccc(Cl)c2)oc1CC(=O)c1ccc(CN2CCCC2)cc1` [CBK047558], the “% of control remaining” value is reported as 135.577%.
For `O=C(NC(NCc1ccc2c(c1)OCO2)(C(F)(F)F)C(F)(F)F)c1cccnc1` [CBK074397], the “% of control remaining” value was 104.021%.
With `O=C(O)c1ccc(N2C(=O)CC(N3CCN(CCO)CC3)C2=O)cc1` (stereo not shown) [CBK271638] the “% of control remaining” value was 114.971%.
With `Cc1nc(COc2ccc(C(=O)Nc3ccc(C(=O)O)cc3C)cc2)cs1` [CBK295360] the “% of control remaining” value was 136.495%.
With `CCn1cc(-c2cncn2CCCOc2cccc(C)c2)cn1` [CBK281760] the “% of control remaining” value was 175.835%.
For `O=C(O)C1(NS(=O)(=O)c2ccc(F)c(Cl)c2)CCCCC1` [CBK267276], the “% of control remaining” value was 127.393%.
`CN(CCN1CCCCC1)C(=O)Cn1cnc2ccccc21` [CBK281515] was tested, and the “% of control remaining” value was 128.47%.
In the case of `O=C(Cn1cccc(C(=O)Nc2cc(F)ccc2N2CCCC2)c1=O)NC1CCCCC1` [CBK286008], the “% of control remaining” value is reported as 114.928%.
`O=C1COc2ccccc2C/C=C/CC2(CCCN(C(=O)CCN3CCCC3)C2)CN1` (stereo not shown) [CBK292136] was tested, and the “% of control remaining” value was 149.171%.
For `Cc1ccc(NC(=S)NC(=O)Cc2ccccc2)c(O)c1` [CBK264337], the “% of control remaining” value was 108.834%.
`Cc1cc(C)n(C(=O)c2ccc([N+](=O)[O-])cc2N)n1` [CBK266491] was tested, and the “% of control remaining” value was 153.502%.
`Oc1ccccc1-c1cc(-c2ccccc2)c2c(ccc3ncccc32)n1` [CBK261276] was tested, and the “% of control remaining” value was 117.665%.
With `Cc1c(Cl)c([N+](=O)[O-])nn1CCCC(=O)Nc1sc2c(c1C#N)CCC(C(C)(C)C)C2` (stereo not shown) [CBK269111] the “% of control remaining” value was 104.333%.
With `CC(C)(C)NC(=O)C[C@@H]1CCNC[C@@H]1Cc1cc(-c2ccccc2)on1` [CBK289145] the “% of control remaining” value was 114.3%.
For `Cc1csc(C(C)NC(=O)NC2CCCN(c3ccn(C)n3)C2=O)n1` (stereo not shown) [CBK304426], the “% of control remaining” value was 103.628%.
With `Nc1nonc1-n1nncc1CN1CCCCC1` [CBK307045] the “% of control remaining” value was 113.13%.
`O=C(Nc1ccccc1-n1cccc1)C1Cc2c([nH]c3ccccc23)C2(CCN(Cc3ccccc3)C2)N1` (stereo not shown) [CBK059395] was tested, and the “% of control remaining” value was 100%.
With `CCN(Cc1ccccn1)C(=O)NC(C)c1cccc(NC(C)=O)c1` (stereo not shown) [CBK305380] the “% of control remaining” value was 80.0347%.
`O=C(O)c1ccccc1-c1ccccc1C(=O)Nc1cccc(-c2nc3ccccc3o2)c1` [CBK262767] was tested, and the “% of control remaining” value was 111.977%.
`COc1ccc(C)cc1C1(CNC(=O)C2CC(O)CN2)CCOCC1` (stereo not shown) [CBK304162] was tested, and the “% of control remaining” value was 123.011%.
For `Cc1nnc(NC(=O)Cc2ccc(F)cc2)s1` [CBK287360], the “% of control remaining” value was 105.586%.
With `OC1CC(c2cc(F)ccc2F)N(CCc2ccncc2)C1` (stereo not shown) [CBK305106] the “% of control remaining” value was 118.503%.
For `CC(C)(C)OC(=O)NCc1ccc(CNCc2cccc(Cl)c2)cc1` [CBK056704], the “% of control remaining” value was 88.7529%.
In the case of `Cc1cc(CN2CCCN(S(=O)(=O)c3ccc(C(F)(F)F)cc3Cl)CC2)cc(C)c1O` [CBK063102], the “% of control remaining” value is reported as 112.811%.
In the case of `Cc1oc(CC(C)C)c(CN2CCCCC2)c1C(=O)O` [CBK265448C], the “% of control remaining” value is reported as 95.9846%.
`O=C(NC(c1ccccc1)c1ccccc1)N1CCN(CCc2ccccc2)CC1` [CBK158905] was tested, and the “% of control remaining” value was 119.534%.
For `Cc1ccc(CN(CCCn2ccnc2)Cc2cncn2C)s1` [CBK283106], the “% of control remaining” value was 103.971%.
In the case of `O=C1CC2(CCN(C(=O)c3ccoc3)CC2)Oc2ccc3ccccc3c21` [CBK156444], the “% of control remaining” value is reported as 103.013%.
In the case of `COc1ccc(OC)c(-c2cc(C(=O)O)c(C)s2)c1` [CBK049922], the “% of control remaining” value is reported as 92.1457%.
In the case of `C[C@@H]1CN(C(=O)c2cc3c(C(=O)OC(C)(C)C)ncn3c3ccc(Cl)cc23)C[C@H](C)N1` [CBK016744], the “% of control remaining” value is reported as 102.195%.
In the case of `C[N+](C)(C)c1ccc(C(=O)O)cc1` [CBK260929B], the “% of control remaining” value is reported as 112.079%.
With `O=C([C@H]1O[C@H](CCN2CCN(c3ccccc3)CC2)CC[C@@H]1O)N1CCOCC1` [CBK288724] the “% of control remaining” value was 106.495%.
For `CCOC(=O)C1CCCCN1S(=O)(=O)c1ccc(Br)s1` (stereo not shown) [CBK096110], the “% of control remaining” value was 93.3878%.
`Cc1c(-c2cncn2C(C)CN2CCOCC2)[nH]c2ccccc12` (stereo not shown) [CBK281795] was tested, and the “% of control remaining” value was 84.3267%.
`COc1ccc(-c2cnn(-c3ccc(OC)cc3)n2)cc1` [CBK112745] was tested, and the “% of control remaining” value was 99.9734%.
With `COc1ccc(-c2nc(-c3cc4ccccc4o3)cnc2N)cc1OC` [CBK064099] the “% of control remaining” value was 127.692%.
`CN(C)CCNC(=O)C1CCN(c2nc3c(-c4ccccc4F)csc3c(=O)[nH]2)CC1` [CBK215437] was tested, and the “% of control remaining” value was 124.545%.
For `Cc1ccc(-c2oncc2C(=O)NCc2cccs2)cc1` [CBK153679], the “% of control remaining” value was 155.172%.
In the case of `Cc1ccc2[nH]c3c(c2c1)CCOC31CCN(CCOc2cccc3c2CCCC3=O)CC1` [CBK040230], the “% of control remaining” value is reported as 94.4056%.
In the case of `CC(C)Nc1cc(Cl)ncn1` [CBK081511], the “% of control remaining” value is reported as 58.6933%.
`FC(F)(F)c1[nH]c2ncccc2c1CN1CCN2CCCCC2C1` (stereo not shown) [CBK285355] was tested, and the “% of control remaining” value was 131.336%.
With `CC(=O)Nc1ccc(NS(=O)(=O)c2ccc(C)c(C(=O)O)c2)cc1` [CBK295162] the “% of control remaining” value was 169.894%.
For `O=C(O)CCN1C(=O)c2ccc(NC(=O)CCc3ccccc3)cc2C1=O` [CBK266422], the “% of control remaining” value was 156.678%.
With `Cc1cnc2[nH]c(C3CC3)c(CN3CC(C)OC(C)C3)c2c1` (stereo not shown) [CBK284741] the “% of control remaining” value was 111.817%.
In the case of `CC(C)(C)c1ccc(C(O)CN2CCC(O)(c3ccc4c(c3)OCO4)CC2)cc1` (stereo not shown) [CBK286336], the “% of control remaining” value is reported as 118.176%.
`O=C(COc1cccc(Cl)c1)NCCc1ccc(S(=O)(=O)NC(=O)NC2CCCCC2)cc1` [CBK011798] was tested, and the “% of control remaining” value was 131.684%.
With `Cn1ccnc1C1(O)CC2CCC(C1)N2C(=O)c1ccccc1Cl` (stereo not shown) [CBK284090] the “% of control remaining” value was 128.446%.
`Cc1ccc2c(c1)cc(C(=O)N(C)CC1(C)COC1)n2C` [CBK281723] was tested, and the “% of control remaining” value was 154.092%.
In the case of `Cc1noc(C)c1C(=O)N1CCn2cc(C(F)(F)F)nc2C1` [CBK282431], the “% of control remaining” value is reported as 100.014%.
`Cn1c(=O)n(CCN2CCOCC2)c(=O)c2c1nc1n2CCN1c1ccc(Oc2ccccc2)cc1` [CBK269202] was tested, and the “% of control remaining” value was 162.126%.
For `O=C(CSc1nc2sc3c(c2c(=O)n1-c1ccccc1)CCCC3)NCCc1ccccc1` [CBK263280], the “% of control remaining” value was 113.687%.
In the case of `O=c1[nH]c2ncc(-c3ccsc3)nc2n1C1CCCCC1` [CBK064574], the “% of control remaining” value is reported as 147.642%.
With `O=C(NCc1ccco1)c1cccc(Oc2ccccc2)c1` [CBK270333] the “% of control remaining” value was 123.114%.
In the case of `O=C1N[C@@H](Cc2ccc(F)cc2)C(=O)N2CCN(C(=O)N3CCOCC3)C[C@H]12` [CBK289603], the “% of control remaining” value is reported as 121.164%.
For `Cc1ccc(S(=O)(=O)CC(=O)N2CCN(C(=O)c3ccco3)CC2)cc1` [CBK144469], the “% of control remaining” value was 108.29%.
In the case of `Nc1ncc(-c2cccc(C(F)(F)F)c2)c2cccnc12` [CBK067590], the “% of control remaining” value is reported as 121.664%.
With `CC(C)(C)OC(=O)N1CCN(CCOc2ccc(NC(=O)OCc3ccccc3)cc2F)CC1` [CBK016854] the “% of control remaining” value was 118.089%.
In the case of `Cc1cc2c(N3CCCC(NS(C)(=O)=O)C3)nccc2o1` (stereo not shown) [CBK306464], the “% of control remaining” value is reported as 108.334%.
For `CCN(CC(=O)NCc1ccccn1)S(=O)(=O)c1ccccc1` [CBK269546], the “% of control remaining” value was 139.826%.

From article PMC12040169 (PLOS Biology, 2025)
